# Some of the results follow.
# Key:
# Assay in all cases: glycan array binding signal (z-score within array); higher = stronger binding
# Settings in all cases: glycan notation: IUPAC condensed, linker removed
# [1] = target: GlcNAc(b1-3)Gal(b1-4)GlcNAc(b1-3)Gal(b1-4)GlcNAc(b1-2)Man(a1-3)[GlcNAc(b1-3)Gal(b1-4)GlcNAc(b1-3)Gal(b1-4)GlcNAc(b1-2)Man(a1-6)]Man(b1-4)GlcNAc(b1-4)GlcNAc
# Summary of the method: (§1)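 The binding signal is a Z-score computed within each array and averaged over linkers. Arrays of the same protein sequence at different concentrations or buffers were also averaged together. Data originate from 3228 arrays in the Consortium for Functional Glycomics database, kept only where the protein sequence was available.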
# [2] = target: GlcNAc(b1-3)Gal(b1-4)GlcNAc(b1-3)Gal(b1-4)GlcNAc(b1-2)Man(a1-3)[GlcNAc(b1-3)Gal(b1-4)GlcNAc(b1-3)Gal(b1-4)GlcNAc(b1-2)Man(a1-6)]Man(b1-4)GlcNAc(b1-4)[Fuc(a1-6)]GlcNAc
# Summary of the method: as §1
# [3] = target: GlcNAc(b1-3)Gal(b1-4)GlcNAc(b1-3)Gal(b1-4)GlcNAc(b1-2)[GlcNAc(b1-3)Gal(b1-4)GlcNAc(b1-3)Gal(b1-4)GlcNAc(b1-6)]Man(a1-6)[GlcNAc(b1-3)Gal(b1-4)GlcNAc(b1-3)Gal(b1-4)GlcNAc(b1-2)Man(a1-3)]Man(b1-4)GlcNAc(b1-4)[Fuc(a1-6)]GlcNAc
# Summary of the method: as §1
# [4] = target: GlcNAc(b1-3)Gal(b1-4)GlcNAc(b1-3)Gal(b1-4)GlcNAc(b1-3)Gal(b1-4)GlcNAc(b1-2)Man(a1-3)[GlcNAc(b1-3)Gal(b1-4)GlcNAc(b1-3)Gal(b1-4)GlcNAc(b1-3)Gal(b1-4)GlcNAc(b1-2)Man(a1-6)]Man(b1-4)GlcNAc(b1-4)GlcNAc
# Summary of the method: as §1
# [5] = target: GlcNAc(b1-3)Gal(b1-4)GlcNAc(b1-3)Gal(b1-4)GlcNAc(b1-3)Gal(b1-4)GlcNAc(b1-2)Man(a1-3)[GlcNAc(b1-3)Gal(b1-4)GlcNAc(b1-3)Gal(b1-4)GlcNAc(b1-3)Gal(b1-4)GlcNAc(b1-2)Man(a1-6)]Man(b1-4)GlcNAc(b1-4)[Fuc(a1-6)]GlcNAc
# Summary of the method: as §1
# [6] = target: GlcNAc(b1-3)Gal(b1-4)GlcNAc(b1-3)Gal(b1-4)GlcNAc(b1-3)Gal(b1-4)GlcNAc(b1-2)[GlcNAc(b1-3)Gal(b1-4)GlcNAc(b1-3)Gal(b1-4)GlcNAc(b1-3)Gal(b1-4)GlcNAc(b1-6)]Man(a1-6)[GlcNAc(b1-3)Gal(b1-4)GlcNAc(b1-3)Gal(b1-4)GlcNAc(b1-3)Gal(b1-4)GlcNAc(b1-2)Man(a1-3)]Man(b1-4)GlcNAc(b1-4)[Fuc(a1-6)]GlcNAc
# Summary of the method: as §1
# [7] = target: GlcNAc(b1-3)Gal(b1-4)GlcNAc(b1-3)Gal(b1-4)GlcNAc(b1-3)Gal(b1-4)GlcNAc(b1-3)Gal(b1-4)GlcNAc(b1-2)Man(a1-3)[GlcNAc(b1-3)Gal(b1-4)GlcNAc(b1-3)Gal(b1-4)GlcNAc(b1-3)Gal(b1-4)GlcNAc(b1-3)Gal(b1-4)GlcNAc(b1-2)Man(a1-6)]Man(b1-4)GlcNAc(b1-4)GlcNAc
# Summary of the method: as §1
# [8] = target: GlcNAc(b1-3)Gal(b1-4)GlcNAc(b1-3)Gal(b1-4)GlcNAc(b1-3)Gal(b1-4)GlcNAc(b1-3)Gal(b1-4)GlcNAc(b1-2)Man(a1-3)[GlcNAc(b1-3)Gal(b1-4)GlcNAc(b1-3)Gal(b1-4)GlcNAc(b1-3)Gal(b1-4)GlcNAc(b1-3)Gal(b1-4)GlcNAc(b1-2)Man(a1-6)]Man(b1-4)GlcNAc(b1-4)[Fuc(a1-6)]GlcNAc
# Summary of the method: as §1
# [9] = target: GlcNAc(b1-3)Gal(b1-4)GlcNAc(b1-3)Gal(b1-4)GlcNAc(b1-3)Gal(b1-4)GlcNAc(b1-3)Gal(b1-4)GlcNAc(b1-2)[GlcNAc(b1-3)Gal(b1-4)GlcNAc(b1-3)Gal(b1-4)GlcNAc(b1-3)Gal(b1-4)GlcNAc(b1-3)Gal(b1-4)GlcNAc(b1-6)]Man(a1-6)[GlcNAc(b1-3)Gal(b1-4)GlcNAc(b1-3)Gal(b1-4)GlcNAc(b1-3)Gal(b1-4)GlcNAc(b1-3)Gal(b1-4)GlcNAc(b1-2)Man(a1-3)]Man(b1-4)GlcNAc(b1-4)[Fuc(a1-6)]GlcNAc
# Summary of the method: as §1
# [10] = target: GlcNAc(b1-3)Gal(b1-4)GlcNAc(b1-3)Gal(b1-4)GlcNAc(b1-3)GalNAc
# Summary of the method: as §1
# [11] = target: GlcNAc(b1-3)Gal(b1-4)GlcNAc(b1-3)GalNAc
# Summary of the method: as §1
# [12] = target: GlcNAc(b1-3)Gal(b1-4)GlcNAc(b1-3)[GlcNAc(b1-3)Gal(b1-4)GlcNAc(b1-3)]GalNAc
# Summary of the method: as §1
# [13] = target: GlcNAc(b1-3)Gal(b1-4)GlcNAc(b1-6)[Gal(b1-3)]GalNAc
# Summary of the method: as §1
# [14] = target: GlcNAc(b1-3)Gal(b1-4)GlcNAc(b1-6)[GlcNAc(b1-3)Gal(b1-3)]GalNAc
# Summary of the method: as §1
# [15] = target: GlcNAc(b1-3)Gal(b1-4)GlcNAc(b1-6)[GlcNAc(b1-3)]Gal(b1-4)GlcNAc
# Summary of the method: as §1
# [16] = target: GlcNAc(b1-3)GalNAc
# Summary of the method: as §1
# [17] = target: GlcNAc(b1-3)Man
# Summary of the method: as §1
# [18] = target: GlcNAc(b1-3)[GlcNAc(b1-4)][GlcNAc(b1-6)]GlcNAc
# Summary of the method: as §1
# [19] = target: GlcNAc(b1-3)[GlcNAc(b1-6)]Gal(b1-4)GlcNAc
# Summary of the method: as §1
# [20] = target: GlcNAc(b1-3)[GlcNAc(b1-6)]GalNAc
# Summary of the method: as §1
# [21] = target: GlcNAc(b1-4)Gal(b1-4)GlcNAc
# Summary of the method: as §1
# [22] = target: GlcNAc(b1-4)GlcNAc
# Summary of the method: as §1
# [23] = target: GlcNAc(b1-4)GlcNAc(b1-4)GlcNAc
# Summary of the method: as §1
binder,measurement,setting,value
"LysMD3 (Homo sapiens), Q7Z3D4 (protein) MAGRHQNRSFPLPGVQSSGQVHAFGNCSDSDILEEDAEVYELRSRGKEKVRRSTSRDRLDDIIVLTKDIQEGDTLNAIALQYCCTVADIKRVNNLISDQDFFALRSIKIPVKKFSSLTETLCPPKGRQTSRHSSVQYSSEQQEILPANDSLAYSDSAGSFLKEVDRDIEQIVKCTDNKRENLNEVVSALTAQQMRFEPDNKNTQRKDPYYGADWGIG",glycan array binding signal (z-score),[1],1.26
same,glycan array binding signal (z-score),[2],1.8
same,glycan array binding signal (z-score),[3],1.87
same,glycan array binding signal (z-score),[4],-0.16
same,glycan array binding signal (z-score),[5],1.68
same,glycan array binding signal (z-score),[6],2.41
same,glycan array binding signal (z-score),[7],-0.009
same,glycan array binding signal (z-score),[8],-1.08
same,glycan array binding signal (z-score),[9],0.289
same,glycan array binding signal (z-score),[10],-1.31
same,glycan array binding signal (z-score),[11],-0.553
same,glycan array binding signal (z-score),[12],-0.683
same,glycan array binding signal (z-score),[13],-0.929
same,glycan array binding signal (z-score),[14],-0.084
same,glycan array binding signal (z-score),[15],0.404
same,glycan array binding signal (z-score),[16],-0.639
same,glycan array binding signal (z-score),[17],0.316
same,glycan array binding signal (z-score),[18],1.06
same,glycan array binding signal (z-score),[19],-0.9
same,glycan array binding signal (z-score),[20],0.094
same,glycan array binding signal (z-score),[21],0.07
same,glycan array binding signal (z-score),[22],0.164
same,glycan array binding signal (z-score),[23],0.082

# Rewritten as tab-separated lines: part of the list above
binder	measurement	setting	value
LysMD3 (Homo sapiens), Q7Z3D4 (protein) MAGRHQNRSFPLPGVQSSGQVHAFGNCSDSDILEEDAEVYELRSRGKEKVRRSTSRDRLDDIIVLTKDIQEGDTLNAIALQYCCTVADIKRVNNLISDQDFFALRSIKIPVKKFSSLTETLCPPKGRQTSRHSSVQYSSEQQEILPANDSLAYSDSAGSFLKEVDRDIEQIVKCTDNKRENLNEVVSALTAQQMRFEPDNKNTQRKDPYYGADWGIG	glycan array binding signal (z-score)	[22]	0.164
same	glycan array binding signal (z-score)	[23]	0.082

# From the supplement of paper PMC8728848
